Measured values from paper doi:10.1101/2022.09.17.508354.
Results are given in words; binding and its absence hold for the method and conditions named. A result given as binding can be weak or reduced; the word gives no strength. For some assays here: Sequences can lack the tags named with a protein.

Columns and labels:
[1] = biological target: T1, recombinant 6x-His-PfPFD3 (Plasmodium falciparum 3D7 prefoldin subunit 3) (Plasmodium falciparum 3D7) (UniProt Q8IBR6); assay: MST
T1 sequence (chain, RED-NHS dye label (where it was the labelled partner in MST)): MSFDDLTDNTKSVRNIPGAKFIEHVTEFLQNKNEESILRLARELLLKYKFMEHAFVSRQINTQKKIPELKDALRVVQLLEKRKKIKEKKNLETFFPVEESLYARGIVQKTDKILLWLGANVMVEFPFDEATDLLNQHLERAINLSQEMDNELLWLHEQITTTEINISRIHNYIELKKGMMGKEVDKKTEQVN

[2] = biological target: recombinant 6x-His-PfPFD6 (Plasmodium falciparum 3D7 prefoldin subunit 6) (Plasmodium falciparum 3D7) (UniProt Q8I3Y6); assay: ELISA

Substance | binding [1] | binding [2]
recombinant 6x-His-PfPFD1 (Plasmodium falciparum 3D7 prefoldin subunit 1) (from UniProt Q8IIS7) | binds | –
Pfα-tubulin-I (protein used in ELISA and SPR) (from UniProt Q6ZLZ9 1-453) | – | binds
